No constants are given. Whether binding was seen depends on the method and setting.
Molecular target: recombinant CHMP7 (full length, wild type) (human) (UniProt Q8WUX9)
Assay: negative stain electron microscopy; each recombinant protein (LEM2^CT, CHMP7 or CHMP7 S3D/S441D) incubated alone; polymerisation scored; both purified

B1: recombinant CHMP7 (full length, wild type) (protein, UniProt Q8WUX9 1-453)
chain: MWSPEREAEAPAGGDPAGLLPPEWEEDEERMSFLFSAFKRSREVNSTDWDSKMGFWAPLVLSHSRRQGVVRLRLRDLQEAFQRKGSVPLGLATVLQDLLRRGELQRESDFMASVDSSWISWGVGVFLLKPLKWTLSNMLGDNKVPAEEVLVAVELLKEKAEEVYRLYQNSPLSSHPVVALSELSTLCANSCPDERTFYLVLLQLQKEKRVTVLEQNGEKIVKFARGPRAKVSPVNDVDVGVYQLMQSEQLLSRKVESLSQEAERCKEEARRACRAGKKQLALRSLKAKQRTEKRIEALHAKLDTVQGILDRIYASQTDQMVFNAYQAGVGALKLSMKDVTVEKAESLVDQIQELCDTQDEVSQTLAGGVTNGLDFDSEELEKELDILLQDTTKEPLDLPDNPRNRHFTNSVPNPRISDAELEAELEKLSLSEGGLVPSSKSPKRQLEPTLKPL
How did the binding turn out when B1 was run?
Its binding is “no binding (condition: incubated alone, without LEM2^CT)”.
